Data taken from the supplement of paper PMC7661543.
± gives the standard deviation of the averaged measurements. The effect of the compound repeats well; differences between the knockouts mostly do not.

Tested on: MDA-MB-231
Experiment: relative cell number vs DMSO control (72 h) (% of DMSO); higher = less growth inhibition (more cells)
Protocol: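 QMAP-Seq: a pool of 5 breast cancer cell lines (ZR-75-1, SKBR3, HCC-38, MDA-MB-231, BT-20), each carrying 12 doxycycline-inducible Cas9 sgRNA perturbations (11 knockouts plus non-targeting sgNT), was treated with compounds for 72 h at four 10-fold doses (10 nM-10 uM or 1 nM-1 uM range). Barcodes were amplified and sequenced, and cell number was interpolated from 293T spike-in standard curves. The result is expressed as % of the median of DMSO wells. Two biological replicates.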

[1] = sgRNA knockout: sgATF3, 1000 nM
[2] = sgRNA knockout: sgATF3, 10000 nM
[3] = sgRNA knockout: sgATF4, 1000 nM
[4] = sgRNA knockout: sgATF4, 10000 nM
[5] = sgRNA knockout: sgATF6, 1000 nM
[6] = sgRNA knockout: sgATF6, 10000 nM
[7] = sgRNA knockout: sgATG7, 1000 nM
[8] = sgRNA knockout: sgATG7, 10000 nM
[9] = sgRNA knockout: sgERN1, 1000 nM
[10] = sgRNA knockout: sgERN1, 10000 nM
[11] = sgRNA knockout: sgHSF1, 1000 nM
[12] = sgRNA knockout: sgHSF1, 10000 nM
[13] = sgRNA knockout: sgHSF2, 1000 nM
[14] = sgRNA knockout: sgHSF2, 10000 nM
[15] = sgRNA knockout: sgKEAP1, 100 nM
[16] = sgRNA knockout: sgKEAP1, 1000 nM
[17] = sgRNA knockout: sgKEAP1, 10000 nM
[18] = sgRNA knockout: sgNFE2L2, 10 nM
[19] = sgRNA knockout: sgNFE2L2, 100 nM
[20] = sgRNA knockout: sgNFE2L2, 1000 nM
[21] = sgRNA knockout: sgNFE2L2, 10000 nM
[22] = sgRNA knockout: sgSLC35F2, 10 nM
[23] = sgRNA knockout: sgSLC35F2, 100 nM
[24] = sgRNA knockout: sgSLC35F2, 1000 nM
[25] = sgRNA knockout: sgSLC35F2, 10000 nM
[26] = sgRNA knockout: sgXBP1, 1000 nM
[27] = sgRNA knockout: sgXBP1, 10000 nM

`COc1cc(OC)c(/C=C/S(=O)(=O)Cc2ccc(OC)c(NCC(=O)O)c2)c(OC)c1` [Rigosertib] was tested, and the relative cell number (sgRNA knockout: sgATF3, 10 nM) was 107 ± 8, the relative cell number (sgRNA knockout: sgATF3, 100 nM) was 72.1 ± 30 and the relative cell number [1] was 25.7 ± 7.7. It also gave a relative cell number [2] of 17.5 ± 0.45, a relative cell number (sgRNA knockout: sgATF4, 10 nM) of 104.3 ± 0.81 and a relative cell number (sgRNA knockout: sgATF4, 100 nM) of 67.9 ± 19. For the same compound, the relative cell number [3] was 41.8 ± 6.2, the relative cell number [4] was 22.6 ± 3.1 and the relative cell number (sgRNA knockout: sgATF6, 10 nM) was 83.2 ± 25. It also gave a relative cell number (sgRNA knockout: sgATF6, 100 nM) of 60.9 ± 7, a relative cell number [5] of 37.7 ± 1.6 and a relative cell number [6] of 25 ± 3.9. It also gave a relative cell number (sgRNA knockout: sgATG7, 10 nM) of 92.49 ± 0.79, a relative cell number (sgRNA knockout: sgATG7, 100 nM) of 51.5 ± 17 and a relative cell number [7] of 25.2 ± 4. The relative cell number [8] was 23.7 ± 3, the relative cell number (sgRNA knockout: sgERN1, 10 nM) was 93.3 ± 8.1 and the relative cell number (sgRNA knockout: sgERN1, 100 nM) was 69.9 ± 6.3. It also gave a relative cell number [9] of 29.6 ± 13, a relative cell number [10] of 17.7 ± 2.7 and a relative cell number (sgRNA knockout: sgHSF1, 10 nM) of 77.6 ± 13. It also gave a relative cell number (sgRNA knockout: sgHSF1, 100 nM) of 58.8 ± 2.1, a relative cell number [11] of 32 ± 8.6 and a relative cell number [12] of 26.3 ± 6.4. For the same compound, the relative cell number (sgRNA knockout: sgHSF2, 10 nM) was 83.6 ± 26, the relative cell number (sgRNA knockout: sgHSF2, 100 nM) was 73.1 ± 17 and the relative cell number [13] was 38.5 ± 3.1. The relative cell number [14] was 21.6 ± 7.5, the relative cell number (sgRNA knockout: sgKEAP1, 10 nM) was 112 ± 29 and the relative cell number [15] was 54.8 ± 7.5. For the same compound, the relative cell number [16] was 24.8 ± 4.1, the relative cell number [17] was 17 ± 5.9 and the relative cell number [18] was 98.3 ± 14. It also gave a relative cell number [19] of 69.2 ± 11, a relative cell number [20] of 28.3 ± 6.9 and a relative cell number [21] of 24 ± 10. For the same compound, the relative cell number [22] was 128 ± 19, the relative cell number [23] was 60.9 ± 7.8 and the relative cell number [24] was 22.1 ± 2.8. The relative cell number [25] was 22.1 ± 2.6, the relative cell number (sgRNA knockout: sgXBP1, 10 nM) was 110 ± 31 and the relative cell number (sgRNA knockout: sgXBP1, 100 nM) was 74.9 ± 13. The relative cell number [26] was 22.7 ± 5.1 and the relative cell number [27] was 21.6 ± 2.
Work on `CN(Cc1cnc2nc(N)nc(N)c2n1)c1ccc(C(=O)N[C@@H](CCC(=O)O)C(=O)O)cc1` [Methotrexate] yielded a relative cell number (sgRNA knockout: sgATF3, 10 nM) of 96.8 ± 16, a relative cell number (sgRNA knockout: sgATF3, 100 nM) of 100 ± 13 and a relative cell number [1] of 79.9 ± 1.9. For the same compound, the relative cell number [2] was 33.7 ± 8.6, the relative cell number (sgRNA knockout: sgATF4, 10 nM) was 104 ± 32 and the relative cell number (sgRNA knockout: sgATF4, 100 nM) was 104 ± 5.7. The relative cell number [3] was 98 ± 20, the relative cell number [4] was 39.7 ± 7.9 and the relative cell number (sgRNA knockout: sgATF6, 10 nM) was 112 ± 7.5. The relative cell number (sgRNA knockout: sgATF6, 100 nM) was 113.4 ± 0.52, the relative cell number [5] was 81.4 ± 18 and the relative cell number [6] was 32 ± 3.2. It also gave a relative cell number (sgRNA knockout: sgATG7, 10 nM) of 112 ± 14, a relative cell number (sgRNA knockout: sgATG7, 100 nM) of 90.5 ± 7.2 and a relative cell number [7] of 93.1 ± 10. For the same compound, the relative cell number [8] was 37.6 ± 4.9, the relative cell number (sgRNA knockout: sgERN1, 10 nM) was 103 ± 22 and the relative cell number (sgRNA knockout: sgERN1, 100 nM) was 89.4 ± 14. For the same compound, the relative cell number [9] was 77.3 ± 9.2, the relative cell number [10] was 31.1 ± 1.6 and the relative cell number (sgRNA knockout: sgHSF1, 10 nM) was 128 ± 18. The relative cell number (sgRNA knockout: sgHSF1, 100 nM) was 78.3 ± 18, the relative cell number [11] was 66.9 ± 24 and the relative cell number [12] was 37.6 ± 0.77. The relative cell number (sgRNA knockout: sgHSF2, 10 nM) was 92 ± 18, the relative cell number (sgRNA knockout: sgHSF2, 100 nM) was 80.9 ± 14 and the relative cell number [13] was 75.5 ± 5.7. It also gave a relative cell number [14] of 38.4 ± 9.3, a relative cell number (sgRNA knockout: sgKEAP1, 10 nM) of 106 ± 8.5 and a relative cell number [15] of 112 ± 2.2. For the same compound, the relative cell number [16] was 67.7 ± 17, the relative cell number [17] was 33.1 ± 2.6 and the relative cell number [18] was 84 ± 7.6. The relative cell number [19] was 80.8 ± 6.1, the relative cell number [20] was 79.7 ± 15 and the relative cell number [21] was 35.7 ± 1.5. The relative cell number [22] was 85.3 ± 1.6, the relative cell number [23] was 93 ± 9.5 and the relative cell number [24] was 93.6 ± 5.9. It also gave a relative cell number [25] of 29.7 ± 4, a relative cell number (sgRNA knockout: sgXBP1, 10 nM) of 86.3 ± 14 and a relative cell number (sgRNA knockout: sgXBP1, 100 nM) of 93.5 ± 4.8. It also gave a relative cell number [26] of 87.1 ± 10 and a relative cell number [27] of 38.7 ± 5.7.
`S=c1nc[nH]c2nc[nH]c12` [6-Mercaptopurine] gave a relative cell number (sgRNA knockout: sgATF3, 10 nM) of 106 ± 14, a relative cell number (sgRNA knockout: sgATF3, 100 nM) of 68.09 ± 0.57 and a relative cell number [1] of 53.8 ± 5.2. It also gave a relative cell number [2] of 56.8 ± 8.4, a relative cell number (sgRNA knockout: sgATF4, 10 nM) of 111 ± 21 and a relative cell number (sgRNA knockout: sgATF4, 100 nM) of 78.1 ± 11. For the same compound, the relative cell number [3] was 58.6 ± 22, the relative cell number [4] was 58.1 ± 10 and the relative cell number (sgRNA knockout: sgATF6, 10 nM) was 108.2 ± 0.79. The relative cell number (sgRNA knockout: sgATF6, 100 nM) was 68.9 ± 9, the relative cell number [5] was 63.8 ± 24 and the relative cell number [6] was 60 ± 17. For the same compound, the relative cell number (sgRNA knockout: sgATG7, 10 nM) was 93.1 ± 11, the relative cell number (sgRNA knockout: sgATG7, 100 nM) was 65.7 ± 15 and the relative cell number [7] was 67.63 ± 0.14. The relative cell number [8] was 58.2 ± 5.6, the relative cell number (sgRNA knockout: sgERN1, 10 nM) was 107 ± 12 and the relative cell number (sgRNA knockout: sgERN1, 100 nM) was 101.8 ± 0.78. It also gave a relative cell number [9] of 49.2 ± 6.1, a relative cell number [10] of 57.7 ± 7.1 and a relative cell number (sgRNA knockout: sgHSF1, 10 nM) of 106 ± 18. The relative cell number (sgRNA knockout: sgHSF1, 100 nM) was 101 ± 15, the relative cell number [11] was 55 ± 2.5 and the relative cell number [12] was 61.3 ± 15. The relative cell number (sgRNA knockout: sgHSF2, 10 nM) was 112 ± 11, the relative cell number (sgRNA knockout: sgHSF2, 100 nM) was 101 ± 35 and the relative cell number [13] was 57.4 ± 5.1. It also gave a relative cell number [14] of 46.1 ± 6.6, a relative cell number (sgRNA knockout: sgKEAP1, 10 nM) of 96.8 ± 7.3 and a relative cell number [15] of 76.8 ± 13. For the same compound, the relative cell number [16] was 56.6 ± 7.7, the relative cell number [17] was 62.4 ± 15 and the relative cell number [18] was 93.2 ± 7.8. The relative cell number [19] was 103 ± 7.3, the relative cell number [20] was 68.8 ± 11 and the relative cell number [21] was 59.9 ± 2.3. For the same compound, the relative cell number [22] was 115 ± 12, the relative cell number [23] was 82.45 ± 0.76 and the relative cell number [24] was 47.6 ± 7.5. The relative cell number [25] was 52.9 ± 6.6, the relative cell number (sgRNA knockout: sgXBP1, 10 nM) was 103 ± 20 and the relative cell number (sgRNA knockout: sgXBP1, 100 nM) was 95.3 ± 7.5. The relative cell number [26] was 62.9 ± 1.8 and the relative cell number [27] was 58.8 ± 1.4.
